The list shows a part of the results.
What was measured:
Test in all cases: log2 fold change, soluble protein after heating vs DMSO (PISA); higher = thermal stabilisation; K562 lysate, 10 uM; active = over 0.2 and 3.5 SD of the protein, either way, in both replicates (recomputed)
[1] = compound: CS(=O)(=O)CCNCc1ccc(-c2ccc3ncnc(Nc4ccc(OCc5cccc(F)c5)c(Cl)c4)c3c2)o1 [lapatinib]
Method in brief: (§1)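 Values give the log-two fold change in thermal stability against solvent controls, from duplicates. Crude K562 extract at 1 mg/mL protein, made by dounce homogenisation in PBS pH 7.4 with 1 mM MgCl2, was treated with 10 μM compound for 30 min. After 3 min heating across 48°C-58°C, aliquots were pooled, adjusted to 0.5% NP-40 at 4°C and centrifuged at 21,000xg for 90 min. The supernatant was measured by TMTpro 16plex LC-MS/MS with channel sums equalised.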

Protein sequences, listed by entry. Tags and fused reporters are not part of them. Lines headed by an entry give the natural chain unless they say otherwise; changes in a name come on top.
UniProt Q9H237: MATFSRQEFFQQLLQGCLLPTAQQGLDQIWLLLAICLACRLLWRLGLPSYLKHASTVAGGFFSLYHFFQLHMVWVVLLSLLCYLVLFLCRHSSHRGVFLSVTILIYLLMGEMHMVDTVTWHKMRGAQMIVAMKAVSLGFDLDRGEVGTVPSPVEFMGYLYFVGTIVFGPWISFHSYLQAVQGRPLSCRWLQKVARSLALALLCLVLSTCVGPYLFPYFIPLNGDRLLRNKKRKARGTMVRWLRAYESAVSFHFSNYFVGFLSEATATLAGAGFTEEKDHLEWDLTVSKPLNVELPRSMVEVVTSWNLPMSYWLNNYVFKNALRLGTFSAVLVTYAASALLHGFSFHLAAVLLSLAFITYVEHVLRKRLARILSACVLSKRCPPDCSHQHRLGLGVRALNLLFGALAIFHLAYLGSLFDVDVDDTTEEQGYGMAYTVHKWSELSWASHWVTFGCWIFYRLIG
UniProt Q9UBT6: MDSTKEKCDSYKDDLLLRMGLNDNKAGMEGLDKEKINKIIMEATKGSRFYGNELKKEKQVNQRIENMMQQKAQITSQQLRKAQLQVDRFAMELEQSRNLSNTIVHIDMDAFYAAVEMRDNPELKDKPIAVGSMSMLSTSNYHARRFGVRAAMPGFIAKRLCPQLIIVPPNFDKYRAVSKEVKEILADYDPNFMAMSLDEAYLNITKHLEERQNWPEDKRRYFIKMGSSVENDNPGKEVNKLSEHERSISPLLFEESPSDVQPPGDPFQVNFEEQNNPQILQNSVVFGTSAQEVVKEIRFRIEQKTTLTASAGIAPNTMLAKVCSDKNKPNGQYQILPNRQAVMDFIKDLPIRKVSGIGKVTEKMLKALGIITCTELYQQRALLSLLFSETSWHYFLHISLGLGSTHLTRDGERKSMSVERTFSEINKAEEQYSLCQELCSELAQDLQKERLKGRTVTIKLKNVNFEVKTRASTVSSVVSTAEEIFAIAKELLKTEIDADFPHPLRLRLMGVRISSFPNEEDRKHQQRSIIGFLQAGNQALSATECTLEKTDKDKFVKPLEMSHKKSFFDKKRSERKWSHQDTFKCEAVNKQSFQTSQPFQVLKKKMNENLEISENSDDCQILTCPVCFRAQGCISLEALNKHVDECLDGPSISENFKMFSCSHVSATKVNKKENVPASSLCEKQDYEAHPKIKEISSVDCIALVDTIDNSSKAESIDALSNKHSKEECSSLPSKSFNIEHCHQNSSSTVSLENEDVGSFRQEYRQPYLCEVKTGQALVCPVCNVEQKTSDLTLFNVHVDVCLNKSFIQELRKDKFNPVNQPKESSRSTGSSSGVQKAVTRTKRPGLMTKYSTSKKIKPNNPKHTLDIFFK
UniProt Q9Y4G2: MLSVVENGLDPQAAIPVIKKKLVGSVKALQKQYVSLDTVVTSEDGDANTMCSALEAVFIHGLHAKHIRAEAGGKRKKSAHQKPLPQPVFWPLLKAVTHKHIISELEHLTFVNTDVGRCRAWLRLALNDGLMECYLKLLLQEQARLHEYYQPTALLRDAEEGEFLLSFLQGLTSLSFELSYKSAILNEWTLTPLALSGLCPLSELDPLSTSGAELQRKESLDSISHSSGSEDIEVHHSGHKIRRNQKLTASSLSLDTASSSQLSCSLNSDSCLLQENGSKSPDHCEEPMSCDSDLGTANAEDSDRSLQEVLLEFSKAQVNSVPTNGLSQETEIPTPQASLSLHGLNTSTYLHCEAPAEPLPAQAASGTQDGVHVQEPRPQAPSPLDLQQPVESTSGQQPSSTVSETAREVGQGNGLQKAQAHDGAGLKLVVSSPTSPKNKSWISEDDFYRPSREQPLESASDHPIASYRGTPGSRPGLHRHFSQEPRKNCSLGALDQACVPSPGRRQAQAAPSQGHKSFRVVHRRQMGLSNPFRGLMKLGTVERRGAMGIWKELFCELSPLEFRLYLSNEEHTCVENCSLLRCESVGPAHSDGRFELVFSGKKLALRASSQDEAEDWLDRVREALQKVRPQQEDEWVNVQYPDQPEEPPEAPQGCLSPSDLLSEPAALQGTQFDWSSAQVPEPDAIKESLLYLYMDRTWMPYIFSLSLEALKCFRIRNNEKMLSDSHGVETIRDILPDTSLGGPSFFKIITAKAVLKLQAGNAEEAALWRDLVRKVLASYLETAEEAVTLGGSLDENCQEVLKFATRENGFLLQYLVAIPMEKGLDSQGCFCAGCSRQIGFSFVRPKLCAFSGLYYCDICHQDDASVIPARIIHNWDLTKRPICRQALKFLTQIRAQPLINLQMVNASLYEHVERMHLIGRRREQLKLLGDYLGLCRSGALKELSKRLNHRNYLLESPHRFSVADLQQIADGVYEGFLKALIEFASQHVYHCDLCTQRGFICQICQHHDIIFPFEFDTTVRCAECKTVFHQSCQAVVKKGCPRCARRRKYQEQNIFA
UniProt Q8NEY8: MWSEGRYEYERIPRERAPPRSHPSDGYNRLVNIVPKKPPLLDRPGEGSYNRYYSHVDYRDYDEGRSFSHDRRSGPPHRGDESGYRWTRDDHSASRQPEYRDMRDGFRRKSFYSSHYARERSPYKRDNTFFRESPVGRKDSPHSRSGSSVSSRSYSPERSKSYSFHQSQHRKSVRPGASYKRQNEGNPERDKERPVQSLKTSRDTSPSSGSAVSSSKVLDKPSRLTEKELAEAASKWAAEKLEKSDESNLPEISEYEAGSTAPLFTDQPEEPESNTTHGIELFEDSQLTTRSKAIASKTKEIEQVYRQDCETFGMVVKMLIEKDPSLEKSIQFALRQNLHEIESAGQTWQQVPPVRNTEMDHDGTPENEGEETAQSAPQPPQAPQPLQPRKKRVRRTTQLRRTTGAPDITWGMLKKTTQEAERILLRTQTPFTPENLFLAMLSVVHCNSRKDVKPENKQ
UniProt O00592: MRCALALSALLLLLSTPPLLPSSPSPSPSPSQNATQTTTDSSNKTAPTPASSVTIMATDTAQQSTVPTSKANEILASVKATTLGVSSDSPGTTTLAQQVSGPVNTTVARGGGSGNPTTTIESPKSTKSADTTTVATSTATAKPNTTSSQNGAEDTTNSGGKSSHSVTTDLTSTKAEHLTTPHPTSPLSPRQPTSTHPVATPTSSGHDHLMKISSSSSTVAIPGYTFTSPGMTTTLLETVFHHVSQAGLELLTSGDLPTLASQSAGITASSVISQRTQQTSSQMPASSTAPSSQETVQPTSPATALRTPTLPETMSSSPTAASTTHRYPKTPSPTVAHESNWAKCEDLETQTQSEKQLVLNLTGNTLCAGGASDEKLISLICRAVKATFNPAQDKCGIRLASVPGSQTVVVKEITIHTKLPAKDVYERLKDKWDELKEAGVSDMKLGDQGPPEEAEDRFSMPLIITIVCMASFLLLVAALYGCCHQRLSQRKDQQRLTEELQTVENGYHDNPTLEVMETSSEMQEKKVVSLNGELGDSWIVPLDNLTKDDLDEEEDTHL
UniProt P29590: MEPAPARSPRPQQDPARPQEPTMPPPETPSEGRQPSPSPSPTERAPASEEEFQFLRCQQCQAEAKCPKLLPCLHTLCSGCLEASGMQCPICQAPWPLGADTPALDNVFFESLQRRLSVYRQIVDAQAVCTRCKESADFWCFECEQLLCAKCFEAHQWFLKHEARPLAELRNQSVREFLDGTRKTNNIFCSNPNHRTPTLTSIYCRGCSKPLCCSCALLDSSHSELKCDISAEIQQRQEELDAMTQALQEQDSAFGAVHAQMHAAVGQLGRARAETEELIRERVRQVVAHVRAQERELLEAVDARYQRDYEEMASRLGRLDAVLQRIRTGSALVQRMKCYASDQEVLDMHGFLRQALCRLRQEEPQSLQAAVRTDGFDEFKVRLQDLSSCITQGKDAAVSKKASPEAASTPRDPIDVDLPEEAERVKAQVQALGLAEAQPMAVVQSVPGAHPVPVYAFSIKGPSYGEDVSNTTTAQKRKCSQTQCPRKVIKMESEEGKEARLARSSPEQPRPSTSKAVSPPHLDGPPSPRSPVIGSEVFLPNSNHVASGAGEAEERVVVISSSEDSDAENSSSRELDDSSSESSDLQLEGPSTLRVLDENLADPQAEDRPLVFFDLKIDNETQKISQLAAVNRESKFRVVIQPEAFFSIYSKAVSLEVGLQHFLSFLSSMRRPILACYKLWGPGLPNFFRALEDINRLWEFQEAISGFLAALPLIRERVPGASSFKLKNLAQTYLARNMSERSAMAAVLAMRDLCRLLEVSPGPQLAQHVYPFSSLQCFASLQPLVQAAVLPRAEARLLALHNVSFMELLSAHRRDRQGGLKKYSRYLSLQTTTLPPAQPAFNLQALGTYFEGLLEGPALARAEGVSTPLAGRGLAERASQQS
UniProt Q15063: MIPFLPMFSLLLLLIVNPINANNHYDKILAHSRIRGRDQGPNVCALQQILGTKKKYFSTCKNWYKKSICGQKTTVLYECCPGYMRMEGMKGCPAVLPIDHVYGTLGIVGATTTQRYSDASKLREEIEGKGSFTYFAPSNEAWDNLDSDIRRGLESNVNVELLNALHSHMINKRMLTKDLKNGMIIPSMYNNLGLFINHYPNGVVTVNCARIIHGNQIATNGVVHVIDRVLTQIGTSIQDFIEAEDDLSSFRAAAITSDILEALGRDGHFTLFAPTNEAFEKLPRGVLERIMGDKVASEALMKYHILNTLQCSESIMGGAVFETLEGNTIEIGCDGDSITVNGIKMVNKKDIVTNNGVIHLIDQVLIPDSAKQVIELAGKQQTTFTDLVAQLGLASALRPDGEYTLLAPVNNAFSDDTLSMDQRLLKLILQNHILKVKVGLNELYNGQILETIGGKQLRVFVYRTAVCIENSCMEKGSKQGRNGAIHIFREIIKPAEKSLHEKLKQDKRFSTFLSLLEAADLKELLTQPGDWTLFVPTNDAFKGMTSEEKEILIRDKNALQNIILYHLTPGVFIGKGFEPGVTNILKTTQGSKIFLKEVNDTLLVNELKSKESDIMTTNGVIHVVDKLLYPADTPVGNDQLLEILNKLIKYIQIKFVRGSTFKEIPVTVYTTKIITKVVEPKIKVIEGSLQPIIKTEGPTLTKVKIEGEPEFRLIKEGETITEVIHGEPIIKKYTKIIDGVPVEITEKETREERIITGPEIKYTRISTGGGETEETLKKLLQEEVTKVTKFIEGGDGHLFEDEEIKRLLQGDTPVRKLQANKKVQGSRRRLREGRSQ
UniProt Q9NRY6: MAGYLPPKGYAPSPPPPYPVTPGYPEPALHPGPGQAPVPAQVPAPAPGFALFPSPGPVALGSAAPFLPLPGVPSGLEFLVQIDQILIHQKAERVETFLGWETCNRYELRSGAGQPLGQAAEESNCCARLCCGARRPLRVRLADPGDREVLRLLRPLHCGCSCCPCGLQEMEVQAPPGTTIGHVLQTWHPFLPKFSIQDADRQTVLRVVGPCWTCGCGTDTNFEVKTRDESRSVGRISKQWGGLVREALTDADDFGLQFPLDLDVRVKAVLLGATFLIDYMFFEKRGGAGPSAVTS
UniProt Q92871: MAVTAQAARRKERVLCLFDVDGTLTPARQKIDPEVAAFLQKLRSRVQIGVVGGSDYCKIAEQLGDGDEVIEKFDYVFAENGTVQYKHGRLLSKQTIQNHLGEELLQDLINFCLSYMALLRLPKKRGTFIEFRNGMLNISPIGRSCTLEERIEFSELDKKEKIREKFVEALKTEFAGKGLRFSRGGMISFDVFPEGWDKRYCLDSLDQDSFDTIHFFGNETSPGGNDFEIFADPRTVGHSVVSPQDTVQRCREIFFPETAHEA
UniProt P55058, whole entry, looked up: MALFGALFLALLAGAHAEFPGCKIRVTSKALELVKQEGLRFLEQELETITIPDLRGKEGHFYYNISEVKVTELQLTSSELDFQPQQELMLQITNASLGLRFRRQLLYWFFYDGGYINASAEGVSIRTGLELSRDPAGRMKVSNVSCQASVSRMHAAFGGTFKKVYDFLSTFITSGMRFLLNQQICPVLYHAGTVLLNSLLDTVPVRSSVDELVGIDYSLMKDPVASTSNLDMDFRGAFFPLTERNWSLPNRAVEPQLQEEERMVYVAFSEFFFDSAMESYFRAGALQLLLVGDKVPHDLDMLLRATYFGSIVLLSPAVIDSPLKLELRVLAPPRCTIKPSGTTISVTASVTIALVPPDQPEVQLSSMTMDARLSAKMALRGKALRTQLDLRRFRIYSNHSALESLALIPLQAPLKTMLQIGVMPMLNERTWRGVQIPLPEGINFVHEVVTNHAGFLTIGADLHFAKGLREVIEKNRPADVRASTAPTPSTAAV
UniProt Q8NBT0: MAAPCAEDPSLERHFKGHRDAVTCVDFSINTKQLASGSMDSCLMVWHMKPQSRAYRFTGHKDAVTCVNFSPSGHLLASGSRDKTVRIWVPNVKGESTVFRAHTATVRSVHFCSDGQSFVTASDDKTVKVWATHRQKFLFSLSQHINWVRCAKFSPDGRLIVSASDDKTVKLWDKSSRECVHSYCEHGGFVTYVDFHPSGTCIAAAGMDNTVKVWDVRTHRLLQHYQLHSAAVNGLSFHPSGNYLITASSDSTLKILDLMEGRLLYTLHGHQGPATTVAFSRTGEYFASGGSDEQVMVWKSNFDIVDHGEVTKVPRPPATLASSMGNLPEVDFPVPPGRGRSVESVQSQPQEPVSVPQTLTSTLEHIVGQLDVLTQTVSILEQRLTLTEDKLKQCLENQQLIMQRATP

[2] = compound: C[C@@H](Oc1cc(-c2cnn(C3CCNCC3)c2)cnc1N)c1c(Cl)ccc(F)c1Cl [crizotinib]
Method in brief: as §1

[3] = compound: C[C@H](C1=CC=C(C=C1)C(=O)NC2=C3C=CNC3=NC=C2)N
Method in brief: as §1

[4] = compound: C[C@H](Nc1ncnc2nc[nH]c12)c1cc2cccc(Cl)c2c(=O)n1-c1ccccc1 [duvelisib]
Method in brief: as §1

[5] = compound: Cc1cc(Nc2cc(CN3CCOCC3)c3nc(C)c(Cc4ccc(Cl)cc4F)n3n2)n[nH]1 [gandotinib]
Method in brief: as §1

[6] = compound: Cc1cc(Nc2cc(N3CCN(C)CC3)nc(Sc3ccc(NC(=O)C4CC4)cc3)n2)n[nH]1 [tozasertib]
Method in brief: as §1

[7] = compound: Cc1ccc(-n2nc(C(C)(C)C)cc2NC(=O)Nc2ccc(OCCN3CCOCC3)c3ccccc23)cc1 [doramapimod]
Method in brief: as §1

[8] = compound: Cc1cccc(CC(=O)N2CCc3c2ccc(-c2cn(C)c4ncnc(N)c24)c3F)n1
Method in brief: as §1

[9] = compound: Cc1cn(-c2cc(NC(=O)c3ccc(C)c(Nc4nccc(-c5cccnc5)n4)c3)cc(C(F)(F)F)c2)cn1 [nilotinib]
Method in brief: as §1

[10] = compound: Cc1nc(Nc2n[nH]c3c2CN(C(=O)N[C@H](CN(C)C)c2ccccc2)C3(C)C)c2sccc2n1
Method in brief: as §1

[11] = compound: Cc1nc(Nc2ncc(C(=O)Nc3c(C)cccc3Cl)s2)cc(N2CCN(CCO)CC2)n1 [dasatinib]
Method in brief: as §1

[12] = compound: Cc1ncc(-c2ccnc(Nc3ccc(S(C)(=O)=O)cc3)n2)n1C(C)C
Method in brief: as §1

[13] = compound: Cn1cc(-c2ccc3c(c2)CCN3C(=O)Cc2cccc(C(F)(F)F)c2)c2c(N)ncnc21
Method in brief: as §1

[14] = compound: Cn1cc(CNCC2CCN(c3ncc(C(=O)NO)cn3)CC2)c2ccccc21 [quisinostat]
Method in brief: as §1

[15] = compound: Cn1cncc1[C@@](N)(c1ccc(Cl)cc1)c1ccc2c(c1)c(-c1cccc(Cl)c1)cc(=O)n2C [tipifarnib]
Method in brief: as §1

[16] = compound: NC(=O)Nc1cc(-c2cccc(F)c2)sc1C(=O)N[C@H]1CCCNC1
Method in brief: as §1

[17] = compound: NC(=O)c1cnc(N[C@@H]2CCCC[C@@H]2N)nc1Nc1cccc(-n2nccn2)c1
Method in brief: as §1

[18] = compound: CS(=O)(=O)N1CCN(Cc2cc3nc(-c4cccc5[nH]ncc45)nc(N4CCOCC4)c3s2)CC1 [pictilisib]
Method in brief: as §1

[19] = compound: Cc1ccc(NC(=O)c2ccc(CN3CC[C@H](N(C)C)C3)c(C(F)(F)F)c2)cc1Nc1nccc(-c2cncnc2)n1 [bafetinib]
Method in brief: as §1

[20] = compound: NC1(c2ccc(-c3nc4ccn5c(=O)[nH]nc5c4cc3-c3ccccc3)cc2)CCC1
Method in brief: as §1

Measured: log2 fold change

POGZ (UniProt Q7Z3K3)
inactive: [1] 0.087 | [2] 0.006 | [3] -0.281 | [4] 0.07 | [5] 0.052 | [6] 0.004 | [7] -0.002 | [8] 0.126 | [9] -0.039 | [10] 0.034 | [11] -0.198 | [12] 0.084 | [13] 0.143 | [14] -0.012 | [15] 0.097 | [16] 0.007 | [17] 0.116

PORCN (UniProt Q9H237)
inactive: [9] 0.156 | [10] -0.602 | [12] 0.35 | [15] -0.029

POMT1 (UniProt Q9Y6A1)
inactive: [1] -0.142 | [4] -0.057 | [11] -0.097 | [13] 0.045 | [17] -0.037

POLK (UniProt Q9UBT6)
inactive: [1] -0.281 | [18] 0.194 | [19] 0.126 | [9] -0.153 | [10] 0.009 | [12] 0.021 | [15] -0.123 | [17] 0.101

PLEKHM1 (UniProt Q9Y4G2)
inactive: [2] 0.026 | [6] 0.071 | [7] -0.093 | [14] -0.059 | [16] 0.026 | [20] 0.094

PM20D2 (UniProt Q8IYS1)
inactive: [1] 0.047 | [18] -0.395 | [6] 0.08 | [19] -0.037 | [17] -0.026

PPHLN1 (UniProt Q8NEY8)
inactive: [1] 0.011 | [2] -0.023 | [3] -0.016 | [5] 0.013 | [6] 0.028 | [7] 0.216 | [8] 0.059 | [9] 0.073 | [10] -0.057 | [12] 0.026 | [14] 0.067 | [15] -0.052 | [16] -0.054 | [17] 0.028 | [20] -0.04

PLPPR3 isoform 3 (UniProt Q6T4P5)
inactive: [4] -0.089 | [11] -0.165 | [13] -0.409

PODXL (UniProt O00592)
inactive: [3] 0.024 | [5] 0.207 | [8] -0.164

PLEKHH2 (UniProt E5RGK1)
inactive: [1] 0.04 | [2] -0.052 | [3] 0.049 | [4] -0.049 | [5] -0.133 | [6] -0.066 | [7] 0.031 | [8] 0.059 | [11] 0.036 | [13] 0.033 | [14] -0.075 | [16] 0.022 | [17] 0.036

PML isoform 11 (UniProt P29590)
inactive: [3] -0.019 | [4] 0.024 | [5] 0.071 | [6] 0.116 | [8] 0.11 | [11] -0.028 | [13] 0.085

POSTN (UniProt Q15063)
inactive: [18] 0.002 | [2] -0.065 | [3] 0.011 | [5] 0.076 | [6] -0.07 | [7] 0.007 | [19] -0.115 | [8] -0.154 | [14] -0.219 | [16] 0.053 | [20] -0.009

PLSCR3 (UniProt Q9NRY6)
inactive: [1] -0.036 | [2] 0.086 | [3] 0.045 | [4] 0.117 | [5] -0.015 | [6] -0.439 | [7] 0.048 | [8] -0.085 | [11] 0.163 | [13] 0.062 | [14] 0.014 | [16] -0.007 | [17] 0.04

POLR2F (UniProt U3KPV3)
inactive: [4] 0.012 | [6] 0.109 | [11] -0.024 | [13] 0.038

POLI (UniProt Q9UNA4)
inactive: [2] -0.368 | [7] -0.04 | [9] 0.04 | [10] -0.026 | [12] -0.209 | [14] -0.046 | [15] 0.032 | [16] 0.172

Reprinted at random: two records from the list, in no set order.
PML isoform 11 (UniProt P29590)
inactive: [3] -0.019 | [4] 0.024 | [5] 0.071 | [6] 0.116 | [8] 0.11 | [11] -0.028 | [13] 0.085

POSTN (UniProt Q15063)
inactive: [18] 0.002 | [2] -0.065 | [3] 0.011 | [5] 0.076 | [6] -0.07 | [7] 0.007 | [19] -0.115 | [8] -0.154 | [14] -0.219 | [16] 0.053 | [20] -0.009

Remaining list, next part

POMGNT2 (UniProt Q8NAT1)
inactive: [1] -0.049 | [2] 0.029 | [3] -0.02 | [4] -0.053 | [5] 0.052 | [6] -0.137 | [7] 0.015 | [8] -0.102 | [9] 0.051 | [10] -0.046 | [11] 0.009 | [12] 0.078 | [13] -0.015 | [14] -0.079 | [15] -0.114 | [16] 0.06 | [17] -0.038 | [20] 0.012

PMM1 (UniProt Q92871)
inactive: [18] -0.084 | [2] -0.043 | [3] -0.13 | [4] 0.057 | [5] -0.008 | [6] 0.005 | [7] 0.048 | [19] -0.028 | [8] 0.065 | [9] 0.029 | [10] 0.098 | [11] -0.027 | [12] -0.015 | [13] -0.011 | [14] -0.049 | [15] 0 | [16] -0.018 | [20] -0.002

PLTP (UniProt P55058)
inactive: [3] 0.055 | [4] 0.045 | [5] -0.456 | [8] -0.61 | [9] -0.067 | [10] -0.031 | [11] -0.004 | [12] 0.01 | [13] 0.087 | [15] -0.078 | [20] 0.007

POC1A (UniProt Q8NBT0)
inactive: [1] -0.082 | [2] 0.125 | [3] -0.084 | [5] -0.097 | [6] 0.045 | [7] 0.153 | [8] -0.152 | [9] -0.216 | [10] 0.085 | [12] 0.046 | [14] 0.189 | [15] 0.094 | [16] -0.007 | [17] 0.167

PLOD2 isoform 2 (UniProt O00469)
inactive: [18] 0.073 | [4] -0.295 | [6] 0.221 | [19] -0.093 | [11] 0.301 | [13] -0.328
